Binding data for two molecules are collected here from paper PMC9441067.

Protein sequences, listed by entry. Tags and fused reporters are not part of them.
UniProt Q96EB6: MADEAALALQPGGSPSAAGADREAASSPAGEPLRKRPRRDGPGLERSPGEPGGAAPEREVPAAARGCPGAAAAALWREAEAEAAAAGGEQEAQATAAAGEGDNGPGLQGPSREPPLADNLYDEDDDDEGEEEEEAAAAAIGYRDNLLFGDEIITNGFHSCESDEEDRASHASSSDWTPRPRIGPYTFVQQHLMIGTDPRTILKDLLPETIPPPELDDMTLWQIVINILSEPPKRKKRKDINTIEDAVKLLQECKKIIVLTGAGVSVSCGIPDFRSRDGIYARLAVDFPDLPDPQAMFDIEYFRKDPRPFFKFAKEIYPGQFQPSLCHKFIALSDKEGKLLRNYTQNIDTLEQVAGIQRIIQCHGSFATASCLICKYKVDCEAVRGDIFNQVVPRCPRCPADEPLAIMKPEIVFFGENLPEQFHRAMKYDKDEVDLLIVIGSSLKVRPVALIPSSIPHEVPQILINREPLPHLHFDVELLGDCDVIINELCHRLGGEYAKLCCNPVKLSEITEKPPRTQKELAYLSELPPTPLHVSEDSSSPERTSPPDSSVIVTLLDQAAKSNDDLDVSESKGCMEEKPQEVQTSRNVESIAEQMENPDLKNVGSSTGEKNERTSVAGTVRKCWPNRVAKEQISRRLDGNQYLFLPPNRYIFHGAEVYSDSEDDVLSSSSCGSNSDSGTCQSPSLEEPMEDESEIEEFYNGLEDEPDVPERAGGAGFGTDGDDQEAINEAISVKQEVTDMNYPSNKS

No constants are given. Whether binding was seen depends on the method and setting. In cells and extracts the contact can be indirect. Some binding calls cover weakened binding; strength is not graded here. For some assays here: Sequences can lack the tags named with a protein.

In test [1] the target is Flag-tagged Sirtuin1 (Sirt1) (UniProt Q96EB6). In words: co-IP; HEK293T cells transfected with His-tagged HO1 and Flag-tagged Sirt1 plasmids; lysates immunoprecipitated with anti-His or anti-Flag antibody and immunoblotted with the other one. On the technique in general: In western blotting, separated proteins are transferred to a membrane and probed.
Test [2] addresses endogenous Sirtuin1 (Sirt1), in THP-1 and MV4-11 cells (human (endogenous in THP-1 and MV4-11)) (UniProt Q96EB6). In words: co-IP; THP-1 and MV4-11 cell lysates immunoprecipitated with anti-HO1 or anti-Sirt1 antibody and immunoblotted with anti-Sirt1 or anti-HO1 antibody.

B1: His-tagged heme oxygenase 1 (HO1) (enzyme, UniProt P09601 1-288)
chain: MERPQPDSMPQDLSEALKEATKEVHTQAENAEFMRNFQKGQVTRDGFKLVMASLYHIYVALEEEIERNKESPVFAPVYFPEELHRKAALEQDLAFWYGPRWQEVIPYTPAMQRYVKRLHEVGRTEPELLVAHAYTRYLGDLSGGQVLKKIAQKALDLPSSGEGLAFFTFPNIASATKFKQLYRSRMNSLEMTPAVRQRVIEEAKTAFLLNIQLFEELQELLTHDTKDQSPSRAPGLRQRASNKVQDSAPVETPRGKPPLNTRSQAPLLRWVLTLSFLVATVAVGLYAM
Consider B1, for which the binding result in test [1] is listed as “binds”.

B2: heme oxygenase 1 (HO1), in THP-1 and MV4-11 cells (enzyme, UniProt P09601 1-288)
chain: B1 chain
For B2, in test [2], the binding entry is “binds”.
